In paper PMC8884907:
Results are given in words; binding and its absence hold for the method and conditions named. Binding seen in cells or lysates may run through a third protein. Some results given as binding are weak or reduced against the parent protein; the word gives no strength.

Sequences of proteins named here, by UniProt entry; tags and fusion partners are left off. A change or cut given only in a name is not applied to a line headed by its entry.
UniProt Q9EP80: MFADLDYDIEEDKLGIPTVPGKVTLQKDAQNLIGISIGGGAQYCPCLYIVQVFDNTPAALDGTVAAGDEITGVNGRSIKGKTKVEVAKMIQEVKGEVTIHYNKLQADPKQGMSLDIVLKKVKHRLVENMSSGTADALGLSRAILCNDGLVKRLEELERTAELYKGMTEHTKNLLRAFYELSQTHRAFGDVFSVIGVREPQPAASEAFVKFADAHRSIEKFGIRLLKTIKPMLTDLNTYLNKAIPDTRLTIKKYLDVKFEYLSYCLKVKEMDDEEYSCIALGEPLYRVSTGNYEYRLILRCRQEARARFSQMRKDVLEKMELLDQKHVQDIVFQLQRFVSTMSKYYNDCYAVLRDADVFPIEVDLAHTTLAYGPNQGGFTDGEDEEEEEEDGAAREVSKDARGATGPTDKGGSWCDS

Assays:
Test in all cases: co-IP; eGFP-PICK1 WT or coding variants in INS-1E cells; endogenous ICA69 co-precipitated; procedure not shown (supplement)
[1] = molecular target: eGFP-PICK1 WT (eGFP fused to shRNA-insensitive rat PICK1) (rat) (UniProt Q9EP80)
[2] = molecular target: eGFP-PICK1 R158Q (rat) (UniProt Q9EP80)
[3] = molecular target: eGFP-PICK1 R197Q (rat) (UniProt Q9EP80)
[4] = molecular target: eGFP-PICK1 R247H (rat) (UniProt Q9EP80)
[5] = molecular target: eGFP-PICK1 R185Q (rat) (UniProt Q9EP80)

Measured: binding

B1: islet cell autoantigen 69 (ICA69), endogenous (protein, UniProt Q63054 1-480)
chain: MSGHKCYSWELQDRFAQDKSVVNKMQQKYWETKQAFIKATGKKEDEHVVASDADLDAKLELFHSIQRTCLDLSKAIVLYQKRICFLSQEENELGKFLRSQGFQDKTRAGKMMQATGKALCFSSQQRLALRNPLCRFHQEVETFRHRAISDTWLTVNRMEQCRTEYRGALLWMKDVSQELDPDLYKQMEKFRKVQTQVRLAKKNFDKLKMDVCQKVDLLGASRCNLLSHMLATYQTTLLHFWEKTSHTMAAIHESFKGYQPYEFTTLKSLQDPMKKLVEKEKKKSSRRENREAVAQEPRQLISLEEENQHKESSTCQKEEGKSVPSSVDKSSADDACSGPIDELLDVKPEEACLGPMAGTPEPESGDKDDLLLLNEIFSTSSLDEGEFSREWAAVFGDDRLKEPAPMGAQGEPDPKPQIGSAFLPSQLLDQNMKDLQASLQEPAKAASDLTAWFSLFADLDPLSNPDAIGKTDKEHELLNA
binds: all assays above
